# Assay results: article PMC3653909
# Chains of the proteins cited; added tags and fusions are not shown.
# UniProt Q3URK3: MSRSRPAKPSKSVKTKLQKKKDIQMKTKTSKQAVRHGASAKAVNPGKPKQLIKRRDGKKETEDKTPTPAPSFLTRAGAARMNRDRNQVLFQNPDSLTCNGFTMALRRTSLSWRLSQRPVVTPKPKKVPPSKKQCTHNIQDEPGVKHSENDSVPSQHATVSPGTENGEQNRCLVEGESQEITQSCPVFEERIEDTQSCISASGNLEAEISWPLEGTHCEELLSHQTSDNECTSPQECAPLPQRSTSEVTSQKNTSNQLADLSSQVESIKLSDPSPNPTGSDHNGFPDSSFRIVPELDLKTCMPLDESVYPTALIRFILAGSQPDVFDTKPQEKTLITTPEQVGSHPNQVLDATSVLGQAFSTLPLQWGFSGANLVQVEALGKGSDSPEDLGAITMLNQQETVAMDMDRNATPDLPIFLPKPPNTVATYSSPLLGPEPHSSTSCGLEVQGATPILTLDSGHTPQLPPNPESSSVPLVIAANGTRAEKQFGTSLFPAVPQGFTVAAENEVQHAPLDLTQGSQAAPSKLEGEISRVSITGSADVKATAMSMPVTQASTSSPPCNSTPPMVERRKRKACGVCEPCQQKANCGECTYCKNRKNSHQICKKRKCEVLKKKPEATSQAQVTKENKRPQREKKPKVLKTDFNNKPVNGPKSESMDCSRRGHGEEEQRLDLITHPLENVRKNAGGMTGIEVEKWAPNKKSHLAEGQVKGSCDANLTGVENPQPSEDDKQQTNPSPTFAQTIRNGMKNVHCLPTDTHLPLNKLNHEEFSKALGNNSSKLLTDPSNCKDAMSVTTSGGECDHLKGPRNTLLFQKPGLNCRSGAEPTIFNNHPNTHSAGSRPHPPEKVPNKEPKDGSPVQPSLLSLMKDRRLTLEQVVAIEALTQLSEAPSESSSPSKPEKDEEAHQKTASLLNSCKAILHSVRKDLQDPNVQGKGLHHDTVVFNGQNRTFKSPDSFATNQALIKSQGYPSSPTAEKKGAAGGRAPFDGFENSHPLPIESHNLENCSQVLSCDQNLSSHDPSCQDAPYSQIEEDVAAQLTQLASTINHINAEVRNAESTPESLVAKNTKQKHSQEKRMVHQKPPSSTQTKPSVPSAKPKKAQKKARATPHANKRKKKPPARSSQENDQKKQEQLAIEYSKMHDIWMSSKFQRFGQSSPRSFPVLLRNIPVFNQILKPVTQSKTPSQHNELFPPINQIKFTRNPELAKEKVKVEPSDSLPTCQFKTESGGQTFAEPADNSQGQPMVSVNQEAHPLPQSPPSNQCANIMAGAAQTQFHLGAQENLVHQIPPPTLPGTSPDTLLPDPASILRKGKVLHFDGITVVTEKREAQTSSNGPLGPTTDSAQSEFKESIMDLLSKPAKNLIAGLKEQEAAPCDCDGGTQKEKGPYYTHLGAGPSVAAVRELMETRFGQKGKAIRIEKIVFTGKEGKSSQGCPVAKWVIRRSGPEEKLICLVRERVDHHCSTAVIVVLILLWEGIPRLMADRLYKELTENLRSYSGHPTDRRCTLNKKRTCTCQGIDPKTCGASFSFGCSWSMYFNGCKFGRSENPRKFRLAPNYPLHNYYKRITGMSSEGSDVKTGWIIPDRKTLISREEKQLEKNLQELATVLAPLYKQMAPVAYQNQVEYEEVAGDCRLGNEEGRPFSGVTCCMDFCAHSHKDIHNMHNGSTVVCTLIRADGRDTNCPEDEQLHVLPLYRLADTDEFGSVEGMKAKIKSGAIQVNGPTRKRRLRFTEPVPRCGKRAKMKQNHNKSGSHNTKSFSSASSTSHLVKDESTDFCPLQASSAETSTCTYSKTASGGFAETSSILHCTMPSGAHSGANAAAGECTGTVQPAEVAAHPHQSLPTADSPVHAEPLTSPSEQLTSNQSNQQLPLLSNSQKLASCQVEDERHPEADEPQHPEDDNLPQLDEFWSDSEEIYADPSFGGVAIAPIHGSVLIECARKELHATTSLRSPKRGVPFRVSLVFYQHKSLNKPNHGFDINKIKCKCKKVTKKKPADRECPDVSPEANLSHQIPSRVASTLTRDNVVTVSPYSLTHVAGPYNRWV
# These are yes or no findings as the source states them, for the method shown.
# Legend:
# Cxxc4 (mouse) = biological target: T1, Cxxc4 (mouse) (UniProt Q6NXI8); assay: fluorescent three hybrid assay (F3H); BHK cells with a lac operator array cotransfected with GBP-lacI, GFP-bait and Ch-prey; the bait is anchored to the array and colocalization of the prey at the array is scored; cells fixed and imaged 16 h after transfection
# T1 sequence: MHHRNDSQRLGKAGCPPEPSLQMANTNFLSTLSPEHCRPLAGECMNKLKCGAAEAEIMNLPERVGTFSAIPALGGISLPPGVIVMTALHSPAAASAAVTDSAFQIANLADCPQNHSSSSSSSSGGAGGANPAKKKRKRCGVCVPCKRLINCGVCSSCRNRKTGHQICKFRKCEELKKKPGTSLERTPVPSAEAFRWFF
# Cxxc5 (mouse) = biological target: T2, Cxxc5 (mouse) (UniProt Q91WA4); assay: as above
# T2 sequence: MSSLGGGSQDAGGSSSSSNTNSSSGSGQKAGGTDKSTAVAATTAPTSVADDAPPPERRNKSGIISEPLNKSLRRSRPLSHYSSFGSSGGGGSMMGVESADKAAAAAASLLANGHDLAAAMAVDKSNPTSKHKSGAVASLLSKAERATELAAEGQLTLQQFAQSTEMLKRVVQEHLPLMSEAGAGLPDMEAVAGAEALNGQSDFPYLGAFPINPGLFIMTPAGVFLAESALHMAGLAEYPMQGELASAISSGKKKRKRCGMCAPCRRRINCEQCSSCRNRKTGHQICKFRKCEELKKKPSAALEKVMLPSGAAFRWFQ
substance,measurement,setting,value
Tet1 (from UniProt Q3URK3 1-2039) (enzyme),binding,Cxxc4 (mouse),no binding
same,binding,Cxxc5 (mouse),no binding
